{"source": "patent US6436942B1", "about": "“Enantiomers of 1[(4-chloro-phenyl) phenylmethyl]-4-[(4-methylphenyl) sulfony]piperazine” (UCB, S.A., priority 1993, dated 2002)", "tested_on": "mice", "experiment": "Toxicity: lethal dose in mice after intraperitoneal injection", "type": "in vivo", "details": "dose causing death in 2 out of 3 mice", "from_the_text": "The compounds of formula V have low toxicity. The lethal dose (causing death in 2 out of 3 mice following intraperitoneal injection of the compounds) is appreciably higher than the dose required to inhibit the cutaneous reaction induced by histamine in the dog. Table VI gives the values for the lethal doses (in mice) for the compounds of formula V.", "note": "Counter-ions that a name gives are not always drawn.", "data": [{"smiles": "O=C(O)COCCN1CCN(C(c2ccccc2)c2ccc(Cl)cc2)CC1", "note": "(single isomer, unassigned) [O, levorotatory dihydrochloride of 2-[2-[4-[(4-chlorophenyl)phenylmethyl]-1-piperazinyl]ethoxy]acetic acid]", "values": [{"measurement": "Lethal dose", "result": 0.0003, "unit": "mol/kg"}]}]}
